Source: US20030003508A1 (priority 1999, published 2003)
At least one structure is not confirmed: it was looked up by name or label, or the drawing left a doubt.

Legend:
R. pulicis = assay type: cell-based, Rickettsia pulicis
“R. felis” = conditions: cited from earlier work

C[C@H]1c2cccc(O)c2C(=O)C2=C(O)[C@]3(O)C(=O)C(C(N)=O)=C(O)[C@@H](N(C)C)[C@@H]3[C@@H](O)[C@@H]21 [Doxycycline]
inhibitory at single concentration tested (R. pulicis): inhibitory
Inhibition by 4 μg/ml of (“R. felis”): +
